Results published in patent US8445291B2 (National University Corporation Tokyo Medical and Dental …, priority 2007, dated 2013).

Experiments:
[1] = test system: probe peptide; test: Fluorescence titration of probe peptide with tag peptide (HEPES buffer), incl. Job's plot; type: binding; conditions: 0.5 μM probe peptide, no tag peptide
Protocol: Fluorescence titration was performed for the tag polypeptides and the probe polypeptides of Examples 1 to 3.
In the fluorescence titration, the rate of change of the fluorescence intensity at 505 nm was plotted against the concentration of the tag peptide and the dissociation constant was calculated from a theoretical formula assuming 1 to 1 binding of the tag peptide to the probe peptide.
In Example 1, the fluorescence intensity at 505 nm in the presence of 1 equivalent of tag peptide was 18 times as high as that measured in the absence of the tag peptide.
Also in the fluorescence titration, with the total concentration of the tag peptide and the probe peptide being fixed at 1.0 μM, the ratio of the respective concentrations of the tag peptide and the probe peptide was varied and the fluorescence intensity at 505 nm was measured. The measured fluorescence intensity was plotted against the ratio of the tag peptide concentration to the total concentration of the tag peptide and the probe peptide and was analyzed by the theoretical formula assuming 1 to 1 binding of the tag peptide to the probe peptide.

[2] = general procedure: Fmoc solid-phase peptide synthesis; Rink Amide resin (0.55 mmol/g); 2-chlorotrityl chloride resin for Chain B; diisopropylcarbodiimide / N-hydroxybenzotriazole monohydrate; conditions: whole synthesis, scale 0.05 mmol

Substance | fluorescence wavelength detected for the probe peptide alone [1] [nm] | isolated mass [2] [mg] | isolated yield [2] [%]
ALKKELEAAKKELEALKKELAGGCGGALEKELEALEKEAEALEKELA [Example 1] | ~540 |  | 
ALKKELEAGKKELEALKKELAGGCGGALEKELEALEKEGEALEKELA [Example 3] | ~540 |  | 
ALKKELEALKKELEALKKELAGGCGGALEKELEALEKELEALEKELA [Example 2] | ~540 |  | 
ClAc-{Gly}{Ala-Leu-Lys-Lys-Lys-Leu-Glu}{Ala-Leu-Lys-Lys-Lys-Dap(NBD)-Glu}{Ala-Leu-Lys-Lys-Lys-Leu-Ala} |  | 12.8 | 27.8
